Assay results from publication PMC4968818.

Target: voltage-dependent anion channel (VDAC) protein (human (endogenous in T47D))
Test: co-IP; VDAC immunoprecipitated from cell lysate (anti-VDAC1/2/3, protein G agarose; lysate first blocked with 10 uM VDAC-binding membrane domain peptide), beads washed with PBS and incubated at RT for 50 min with recombinant HK at pH 6.2; western blots for HK-1, HK-2 and VDAC; both purified

| binding | Binder |
| --- | --- |
| binds | recombinant hexokinase 1 (HK-1) (enzyme, UniProt P19367 1-917) MIAAQLLAYYFTELKDDQVKKIDKYLYAMRLSDETLIDIMTRFRKEMKNGLSRDFNPTATVKMLPTFVRSIPDGSEKGDFIALDLGGSSFRILRVQVNHEKNQNVHMESEVYDTPENIVHGSGSQLFDHVAECLGDFMEKRKIKDKKLPVGFTFSFPCQQSKIDEAILITWTKRFKASGVEGADVVKLLNKAIKKRGDYDANIVAVVNDTVGTMMTCGYDDQHCEVGLIIGTGTNACYMEELRHIDLVEGDEGRMCINTEWGAFGDDGSLEDIRTEFDREIDRGSLNPGKQLFEKMVSGMYLGELVRLILVKMAKEGLLFEGRITPELLTRGKFNTSDVSAIEKNKEGLHNAKEILTRLGVEPSDDDCVSVQHVCTIVSFRSANLVAATLGAILNRLRDNKGTPRLRTTVGVDGSLYKTHPQYSRRFHKTLRRLVPDSDVRFLLSESGSGKGAAMVTAVAYRLAEQHRQIEETLAHFHLTKDMLLEVKKRMRAEMELGLRKQTHNNAVVKMLPSFVRRTPDGTENGDFLALDLGGTNFRVLLVKIRSGKKRTVEMHNKIYAIPIEIMQGTGEELFDHIVSCISDFLDYMGIKGPRMPLGFTFSFPCQQTSLDAGILITWTKGFKATDCVGHDVVTLLRDAIKRREEFDLDVVAVVNDTVGTMMTCAYEEPTCEVGLIVGTGSNACYMEEMKNVEMVEGDQGQMCINMEWGAFGDNGCLDDIRTHYDRLVDEYSLNAGKQRYEKMISGMYLGEIVRNILIDFTKKGFLFRGQISETLKTRGIFETKFLSQIESDRLALLQVRAILQQLGLNSTCDDSILVKTVCGVVSRRAAQLCGAGMAAVVDKIRENRGLDRLNVTVGVDGTLYKLHPHFSRIMHQTVKELSPKCNVSFLLSEDGSGKGAALITAVGVRLRTEASS |
| binds | recombinant hexokinase 2 (HK-2) (enzyme, UniProt P52789 1-917) MIASHLLAYFFTELNHDQVQKVDQYLYHMRLSDETLLEISKRFRKEMEKGLGATTHPTAAVKMLPTFVRSTPDGTEHGEFLALDLGGTNFRVLWVKVTDNGLQKVEMENQIYAIPEDIMRGSGTQLFDHIAECLANFMDKLQIKDKKLPLGFTFSFPCHQTKLDESFLVSWTKGFKSSGVEGRDVVALIRKAIQRRGDFDIDIVAVVNDTVGTMMTCGYDDHNCEIGLIVGTGSNACYMEEMRHIDMVEGDEGRMCINMEWGAFGDDGSLNDIRTEFDQEIDMGSLNPGKQLFEKMISGMYMGELVRLILVKMAKEELLFGGKLSPELLNTGRFETKDISDIEGEKDGIRKAREVLMRLGLDPTQEDCVATHRICQIVSTRSASLCAATLAAVLQRIKENKGEERLRSTIGVDGSVYKKHPHFAKRLHKTVRRLVPGCDVRFLRSEDGSGKGAAMVTAVAYRLADQHRARQKTLEHLQLSHDQLLEVKRRMKVEMERGLSKETHASAPVKMLPTYVCATPDGTEKGDFLALDLGGTNFRVLLVRVRNGKWGGVEMHNKIYAIPQEVMHGTGDELFDHIVQCIADFLEYMGMKGVSLPLGFTFSFPCQQNSLDESILLKWTKGFKASGCEGEDVVTLLKEAIHRREEFDLDVVAVVNDTVGTMMTCGFEDPHCEVGLIVGTGSNACYMEEMRNVELVEGEEGRMCVNMEWGAFGDNGCLDDFRTEFDVAVDELSLNPGKQRFEKMISGMYLGEIVRNILIDFTKRGLLFRGRISERLKTRGIFETKFLSQIESDCLALLQVRAILQHLGLESTCDDSIIVKEVCTVVARRAAQLCGAGMAAVVDRIRENRGLDALKVTVGVDGTLYKLHPHFAKVMHETVKDLAPKCDVSFLQSEDGSGKGAALITAVACRIREAGQR |

These are yes or no findings as the source states them, for the method shown. Binding seen in cells or lysates may run through a third protein. Binding calls can cover weak binding; strength is not graded here.
